No constants are given. Whether binding was seen depends on the method and setting. In cells and extracts the contact can be indirect. These calls come from enrichment with a bait or labelling near it, and not all partners need be listed.
Target: SMAD Family Member 3 (Smad3), endogenous (mouse (endogenous in EL4 and mouse CD4+ T cells)) (UniProt Q8BUN5)
Assay: affinity purification with mass spectrometry; free Dleu2-17aa in excess as competitor of Biotin-Dleu2-17aa for Smad3 of the cell lysate; streptavidin-agarose, LC-MS/MS; only the binder purified

By UniProt entry, the sequences of proteins in these tests, tags left out.
UniProt Q8BUN5: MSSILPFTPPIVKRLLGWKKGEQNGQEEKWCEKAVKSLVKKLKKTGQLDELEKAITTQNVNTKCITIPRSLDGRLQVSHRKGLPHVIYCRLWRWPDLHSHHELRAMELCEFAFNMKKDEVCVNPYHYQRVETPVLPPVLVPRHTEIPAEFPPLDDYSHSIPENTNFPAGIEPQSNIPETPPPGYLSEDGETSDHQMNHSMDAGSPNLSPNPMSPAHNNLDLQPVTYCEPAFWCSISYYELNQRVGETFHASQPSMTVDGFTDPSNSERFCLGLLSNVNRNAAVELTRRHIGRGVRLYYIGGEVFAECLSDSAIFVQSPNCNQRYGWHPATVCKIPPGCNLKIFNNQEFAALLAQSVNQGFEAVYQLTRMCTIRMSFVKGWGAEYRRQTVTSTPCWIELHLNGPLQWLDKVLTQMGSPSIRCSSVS

- binding: binds
Binder: MLGRRARRRGRGRRRPA [Dleu2-17aa, free (unlabelled)]
